The match of structure and compound is tentative.

The chains behind the UniProt entries cited, without tags or fusion partners. Residues count along the entry.
UniProt P47871, 26-477 limits assumed: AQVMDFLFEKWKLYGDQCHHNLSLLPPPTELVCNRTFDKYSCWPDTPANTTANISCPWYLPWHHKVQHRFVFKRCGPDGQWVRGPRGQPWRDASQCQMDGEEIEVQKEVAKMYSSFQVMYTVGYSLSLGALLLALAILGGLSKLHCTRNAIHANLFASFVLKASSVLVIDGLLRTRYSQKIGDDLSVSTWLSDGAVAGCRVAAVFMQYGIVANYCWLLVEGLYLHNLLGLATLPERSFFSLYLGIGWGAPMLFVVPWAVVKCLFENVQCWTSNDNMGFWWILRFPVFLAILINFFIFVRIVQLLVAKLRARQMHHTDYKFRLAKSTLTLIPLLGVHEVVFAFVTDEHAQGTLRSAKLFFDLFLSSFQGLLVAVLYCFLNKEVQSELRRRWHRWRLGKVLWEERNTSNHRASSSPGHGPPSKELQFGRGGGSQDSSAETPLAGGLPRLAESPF

Results on eight compounds are retold here after patent US6218431A, “Substituted biphenyls” (Bayer Corporation, priority 1997, dated 2001).

For the assay, the target named is glucagon receptor (Homo sapiens, UniProt P47871). Kind of assay: glucagon receptor binding assay (125I-glucagon, CHO-HGR membranes). As to conditions: 60 min at room temperature.
`CCCCCc1c(COCc2ccccc2)nc(C(C)C)c(CO)c1-c1ccc(F)cc1` had an IC50 of 1.8 µM.
Compound `CCCCCc1c(CNc2cccc(OC)c2)nc(C(C)C)c(CO)c1-c1ccc(F)cc1` returned an IC50 of 7 µM.
`CCCCCc1c(C(O)c2ccccc2)nc(C(C)C)c(CO)c1-c1ccc(F)cc1` (centres unmarked) gave an IC50 of 19 µM.
In the case of `CCCCCc1c(C(C)C)nc(C(C)C)c(CO)c1-c1ccc(F)cc1F`, the IC50 amounted to 10.5 µM.
In turn, `CCCCCc1c(C(C)(C)OC)nc(C(C)C)c(CO)c1-c1ccc(F)cc1` had a half-maximal inhibitory concentration (IC50) of 1.3 µM.
In the case of `CCCCCc1c(C(C)(C)OCC)nc(C(C)C)c(CO)c1-c1ccc(F)cc1`, the IC50 was 1.3 µM.
As to `CSc1ccc(SCc2c(C(C)C)cc(C(C)C)c(C(C)O)c2-c2ccc(F)cc2)cc1` (single isomer, unassigned), the half-maximal inhibitory concentration (IC50) was found to be 0.4 µM.
The figure for `CCCC=Cc1c(C(C)C)nc(C(C)C)c(CO)c1-c1ccsc1` is 12 µM.

The term IC50 denotes the point on the concentration scale where inhibition reaches its midpoint.
